Results deposited as PubChem BioAssay AID686943 (Drosophila RNAi Screening Center, 2013)
Aim: 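Fly genes whose loss alters ERK activation after insulin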 (primary screen). Cell system: Drosophila S2R+ haemocyte-like cells expressing YFP-tagged ERK (Rolled). Reagents: long dsRNA against Drosophila genes. Treatment: insulin stimulation versus unstimulated cells; dose and duration not given. Detection: 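Antibody staining for doubly phosphorylated ERK divided by ERK-YFP signal, as plate z-scores, in insulin-treated and untreated cells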. Reading the numbers: replicate 1, z-score of dpERK with insulin: higher = more active ERK per ERK-YFP after insulin.
The deposit covers about 23,000 reagents; below is an unselected part of those that have a named target and a result. 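Extra replicates exist only for a retested subset of genes; insulin dose and duration not given; both raised and lowered dpERK matter.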 A plus sign joins genes that one reagent is predicted to hit. Further read-outs or replicates are left out here. Not stated in the record: the amount of reagent, the time to read-out.

gene	dsRNA	replicate 1, z-score of dpERK with insulin
CG33308 (GeneID 2768925)	DRSC01419	-1.97
brv1 (GeneID 40116)	DRSC11076	0.03
CG15422 (GeneID 33615)	DRSC00436	1.62
Spn38F (GeneID 49806)	DRSC03616	0.99
Tl (GeneID 43222)	DRSC16885	0.62
CG5541 (GeneID 2768877)	DRSC19946	-0.2
mtt (GeneID 35832)	DRSC05106	-0.83
mtt (GeneID 35832)	DRSC05107	-0.38
mtt (GeneID 35832)	DRSC06753	0.44
mtt (GeneID 35832)	DRSC07235	-0.35
CG7829 (GeneID 43522)	DRSC16322	-0.55
CG9386 (GeneID 41148)	DRSC16485	-0.87
CG18636 (GeneID 2768923)	DRSC02685	0.63
CG34292 (GeneID 5740196)	DRSC13807	-0.23
Hsepi (GeneID 35569)	DRSC04986	0.83
SCOT (GeneID 38261)	DRSC08186	0.23
Osi11 (GeneID 40765)	DRSC12282	-0.93
CG1663 (GeneID 36012)	DRSC06613	0.97
CG1663 (GeneID 36012)	DRSC22488	-0.69
CG12689 (GeneID 31676)	DRSC17879	-0.47
CG13810 (GeneID 38278)	DRSC08344	0.93
CG13810 (GeneID 38278)	DRSC22838	1.39
CG43278 (retired record) (GeneID 12797947)	DRSC17524	0.03
CG43338 (GeneID 35117)	DRSC22055	-2.25
CG4364 (GeneID 34287)	DRSC02742	-0.07
Prestin (GeneID 39996)	DRSC10507	0.7
Mvl (GeneID 42490)	DRSC16752	-0.02
TwdlQ (GeneID 43214)	DRSC14745	-0.72
CG12159 (GeneID 35741)	DRSC06114	-0.73
Or98b (GeneID 43375)	DRSC16775	0.56
Or98b (GeneID 43375)	DRSC21751	-0.16
CG14327 (GeneID 42118)	DRSC14806	0.76
futsch (GeneID 5740544)	DRSC17688	0.18
futsch (GeneID 5740544)	DRSC17949	0.26
futsch (GeneID 5740544)	DRSC17952	-0.34
futsch (GeneID 5740544)	DRSC18543	-0.55

10 entries from above, arranged by “replicate 1, z-score of dpERK with insulin”, low to high:
gene	dsRNA	replicate 1, z-score of dpERK with insulin
Osi11 (GeneID 40765)	DRSC12282	-0.93
CG9386 (GeneID 41148)	DRSC16485	-0.87
CG1663 (GeneID 36012)	DRSC22488	-0.69
CG12689 (GeneID 31676)	DRSC17879	-0.47
CG34292 (GeneID 5740196)	DRSC13807	-0.23
SCOT (GeneID 38261)	DRSC08186	0.23
CG18636 (GeneID 2768923)	DRSC02685	0.63
Hsepi (GeneID 35569)	DRSC04986	0.83
CG13810 (GeneID 38278)	DRSC08344	0.93
CG1663 (GeneID 36012)	DRSC06613	0.97

The listing continues:
gene	dsRNA	replicate 1, z-score of dpERK with insulin
CG5323 (GeneID 37137)	DRSC06929	0.52
CG13293 (GeneID 38695)	DRSC09967	-0.01
CG42397 (GeneID 8673976)	DRSC09147	0.5
wnd (GeneID 40143)	DRSC09626	0.88
wnd (GeneID 40143)	DRSC11046	-0.53
wnd (GeneID 40143)	DRSC21373	0.21
CG31769 (GeneID 318934)	DRSC01361	-0.35
CG10950 (GeneID 36942)	DRSC06020	-0.63
RpS7 (GeneID 43594)	DRSC15394	1.69
GlcAT-S (GeneID 34282)	DRSC02731	-0.84
I-3 (GeneID 33068)	DRSC20479	-0.35
Miga (GeneID 31775)	DRSC17821	0.32
Notum (GeneID 39751)	DRSC09959	0.16
CG15870 (GeneID 36446)	DRSC06588	0.49
Cln3 (GeneID 39981)	DRSC10520	-0.36
CG18557 (GeneID 33483)	DRSC00524	0.66
CG6885 (GeneID 40041)	DRSC10740	-0.11
kmg (GeneID 34706)	DRSC02829	0.22
eIF4EHP (GeneID 326255)	DRSC13653	0.65
eIF4EHP (GeneID 326255)	DRSC14265	0.83
CG14764 (GeneID 35749)	DRSC05072	-0.66
CG14764 (GeneID 35749)	DRSC06498	0.06
CG14764 (GeneID 35749)	DRSC06844	0.21
CG14949 (GeneID 38328)	DRSC08408	0.37
asRNA:CR30267 (GeneID 12798141)	DRSC21628	-0.02
CG42240 (GeneID 7354471)	DRSC18097	0.82
CHKov1 (GeneID 43067)	DRSC01566	0.58
CHKov1 (GeneID 43067)	DRSC01696	-0.43
CHKov1 (GeneID 43067)	DRSC14258	0.1
CHKov1 (GeneID 43067)	DRSC20937	0.78
Fmr1 (GeneID 37528)	DRSC16674	0.22
CG10927 (GeneID 37135)	DRSC06014	0.1
CG31709 (GeneID 261620)	DRSC01081	0.24
T3dh + pgc	DRSC04659	0.16
Snx21 (GeneID 33466)	DRSC00564	-0.28
hdm (GeneID 31705)	DRSC18013	-0.13
aspr (GeneID 33013)	DRSC20689	-0.05
aspr (GeneID 33013)	DRSC20690	0.11
